Results deposited as PubChem BioAssay AID1259405 (NCATS, 2018).

Assay: 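Knock-downs that lift recombinant protein yield in hamster ovary cells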 (primary screen)
System: Chinese hamster CHO-K1 ovary cells with stable secreted eGFP expression
Reagent: single siRNA against mouse genes, 0.8 pmol siRNA per well (2 µl of 400 nM stock)
Timing: 3 days
Measured: 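Percent of the per-plate non-targeting control median for intracellular GFP per well by laser scanning cytometry and for cell viability by ATP luminescence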
Direction: GFP, % of control: higher = more GFP per well, higher productivity; viability (ATP), % of control: higher = more viable cells (more ATP)
Active means: 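a knock-down is called active if GFP reaches 120% or more of non-targeting control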
Here is a random part of about 50,000 reagents. About 4,000 of them (8%) were called active. 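Mouse siRNA library applied to hamster cells; one well for each siRNA.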 Reagents against one gene are numbered here.

For Med26 #1, how do the results read?
GFP, % of control: 80.5; viability (ATP), % of control: 66; outcome: inactive

How did the screen score Med26 #2?
GFP, % of control: 68; viability (ATP), % of control: 59.8; outcome: inactive

For Psmc3ip #1, what does the deposit list?
GFP, % of control: 72.4; viability (ATP), % of control: 87.9; outcome: inactive

With Psmc3ip #2, how do the results read?
GFP, % of control: 52.7; viability (ATP), % of control: 72.8; outcome: inactive

Which result is listed for Psmc3ip #3?
GFP, % of control: 77.8; viability (ATP), % of control: 79.1; outcome: inactive

With Zfp385b #1, how do the results read?
GFP, % of control: 53.9; viability (ATP), % of control: 92; outcome: inactive

What did the screen give for Zfp385b #2?
GFP, % of control: 59.5; viability (ATP), % of control: 66.9; outcome: inactive

For Zfp385b #3, how do the results read?
GFP, % of control: 70; viability (ATP), % of control: 105; outcome: inactive

What is on record for Drc2 #1?
GFP, % of control: 64.1; viability (ATP), % of control: 72.5; outcome: inactive

Which result is listed for Drc2 #2?
GFP, % of control: 150; viability (ATP), % of control: 105; outcome: active

With Drc2 #3, what was measured?
GFP, % of control: 71.4; viability (ATP), % of control: 76.5; outcome: inactive

For Nherf1 #1, how do the results read?
GFP, % of control: 70; viability (ATP), % of control: 56; outcome: inactive

With Nherf1 #2, how do the results read?
GFP, % of control: 56.6; viability (ATP), % of control: 47.9; outcome: inactive

What did the screen give for Pcdhb19 #1?
GFP, % of control: 79.9; viability (ATP), % of control: 89.9; outcome: inactive

What did the screen give for Pcdhb19 #2?
GFP, % of control: 72.6; viability (ATP), % of control: 80.7; outcome: inactive

Which result is listed for Cog6 #1?
GFP, % of control: 108; viability (ATP), % of control: 99; outcome: inactive

What did the screen give for Cog6 #2?
GFP, % of control: 82.6; viability (ATP), % of control: 77.3; outcome: inactive

How did the screen score Cog6 #3?
GFP, % of control: 51.4; viability (ATP), % of control: 90.7; outcome: inactive

For Osbpl1a #1, how do the results read?
GFP, % of control: 69.5; viability (ATP), % of control: 82.7; outcome: inactive

For Osbpl1a #2, what was measured?
GFP, % of control: 88.5; viability (ATP), % of control: 69.8; outcome: inactive

For Osbpl1a #3, what does the deposit list?
GFP, % of control: 88.6; viability (ATP), % of control: 80; outcome: inactive

For Nrm #1, what was measured?
GFP, % of control: 76.4; viability (ATP), % of control: 63; outcome: inactive

How did the screen score Nrm #2?
GFP, % of control: 148; viability (ATP), % of control: 81.6; outcome: active

What is on record for Nrm #3?
GFP, % of control: 71.7; viability (ATP), % of control: 52; outcome: inactive

For Nemp1 #1, what does the deposit list?
GFP, % of control: 71.9; viability (ATP), % of control: 81.1; outcome: inactive

For Nemp1 #2, what was measured?
GFP, % of control: 90; viability (ATP), % of control: 106; outcome: inactive

For Nemp1 #3, what does the deposit list?
GFP, % of control: 198; viability (ATP), % of control: 150; outcome: active

For Pirt #1, how do the results read?
GFP, % of control: 49.9; viability (ATP), % of control: 41.2; outcome: inactive

What did the screen give for Pirt #2?
GFP, % of control: 73.2; viability (ATP), % of control: 73.6; outcome: inactive

Which result is listed for Pirt #3?
GFP, % of control: 30.5; viability (ATP), % of control: 63.5; outcome: inactive

With Usp43 #1, how do the results read?
GFP, % of control: 88.1; viability (ATP), % of control: 111; outcome: inactive

What did the screen give for Usp43 #2?
GFP, % of control: 82.3; viability (ATP), % of control: 63.9; outcome: inactive

What is on record for Usp43 #3?
GFP, % of control: 47.5; viability (ATP), % of control: 45.6; outcome: inactive

What did the screen give for Paics #1?
GFP, % of control: 113; viability (ATP), % of control: 113; outcome: inactive

With Paics #2, what was measured?
GFP, % of control: 62.8; viability (ATP), % of control: 56.4; outcome: inactive

With Paics #3, what does the deposit list?
GFP, % of control: 68.4; viability (ATP), % of control: 74.9; outcome: inactive

What did the screen give for H2-M10.4 #1?
GFP, % of control: 33; viability (ATP), % of control: 16.7; outcome: inactive

What is on record for H2-M10.4 #2?
GFP, % of control: 69.3; viability (ATP), % of control: 60.1; outcome: inactive

For H2-M10.4 #3, what does the deposit list?
GFP, % of control: 121; viability (ATP), % of control: 74.6; outcome: active

For Acsm2 #1, what does the deposit list?
GFP, % of control: 58.4; viability (ATP), % of control: 77.7; outcome: inactive

Which result is listed for Acsm2 #2?
GFP, % of control: 113; viability (ATP), % of control: 93.3; outcome: inactive

With Acsm2 #3, how do the results read?
GFP, % of control: 146; viability (ATP), % of control: 148; outcome: active

Records listed so far called active:
Drc2 #2 → GFP, % of control = 150; viability (ATP), % of control = 105; outcome = active
Nrm #2 → GFP, % of control = 148; viability (ATP), % of control = 81.6; outcome = active
Nemp1 #3 → GFP, % of control = 198; viability (ATP), % of control = 150; outcome = active
H2-M10.4 #3 → GFP, % of control = 121; viability (ATP), % of control = 74.6; outcome = active
Acsm2 #3 → GFP, % of control = 146; viability (ATP), % of control = 148; outcome = active
